Reference: US7049313B2, “ATM inhibitors” (Kudos Pharmaceuticals Ltd., priority 2002, dated 2006)
Some of these results come from one statement about several compounds together.

The chains behind the UniProt entries cited, without tags or fusion partners. Where a name states a change or a piece, a line headed by the entry shows the natural chain unless it says otherwise.
UniProt Q13315: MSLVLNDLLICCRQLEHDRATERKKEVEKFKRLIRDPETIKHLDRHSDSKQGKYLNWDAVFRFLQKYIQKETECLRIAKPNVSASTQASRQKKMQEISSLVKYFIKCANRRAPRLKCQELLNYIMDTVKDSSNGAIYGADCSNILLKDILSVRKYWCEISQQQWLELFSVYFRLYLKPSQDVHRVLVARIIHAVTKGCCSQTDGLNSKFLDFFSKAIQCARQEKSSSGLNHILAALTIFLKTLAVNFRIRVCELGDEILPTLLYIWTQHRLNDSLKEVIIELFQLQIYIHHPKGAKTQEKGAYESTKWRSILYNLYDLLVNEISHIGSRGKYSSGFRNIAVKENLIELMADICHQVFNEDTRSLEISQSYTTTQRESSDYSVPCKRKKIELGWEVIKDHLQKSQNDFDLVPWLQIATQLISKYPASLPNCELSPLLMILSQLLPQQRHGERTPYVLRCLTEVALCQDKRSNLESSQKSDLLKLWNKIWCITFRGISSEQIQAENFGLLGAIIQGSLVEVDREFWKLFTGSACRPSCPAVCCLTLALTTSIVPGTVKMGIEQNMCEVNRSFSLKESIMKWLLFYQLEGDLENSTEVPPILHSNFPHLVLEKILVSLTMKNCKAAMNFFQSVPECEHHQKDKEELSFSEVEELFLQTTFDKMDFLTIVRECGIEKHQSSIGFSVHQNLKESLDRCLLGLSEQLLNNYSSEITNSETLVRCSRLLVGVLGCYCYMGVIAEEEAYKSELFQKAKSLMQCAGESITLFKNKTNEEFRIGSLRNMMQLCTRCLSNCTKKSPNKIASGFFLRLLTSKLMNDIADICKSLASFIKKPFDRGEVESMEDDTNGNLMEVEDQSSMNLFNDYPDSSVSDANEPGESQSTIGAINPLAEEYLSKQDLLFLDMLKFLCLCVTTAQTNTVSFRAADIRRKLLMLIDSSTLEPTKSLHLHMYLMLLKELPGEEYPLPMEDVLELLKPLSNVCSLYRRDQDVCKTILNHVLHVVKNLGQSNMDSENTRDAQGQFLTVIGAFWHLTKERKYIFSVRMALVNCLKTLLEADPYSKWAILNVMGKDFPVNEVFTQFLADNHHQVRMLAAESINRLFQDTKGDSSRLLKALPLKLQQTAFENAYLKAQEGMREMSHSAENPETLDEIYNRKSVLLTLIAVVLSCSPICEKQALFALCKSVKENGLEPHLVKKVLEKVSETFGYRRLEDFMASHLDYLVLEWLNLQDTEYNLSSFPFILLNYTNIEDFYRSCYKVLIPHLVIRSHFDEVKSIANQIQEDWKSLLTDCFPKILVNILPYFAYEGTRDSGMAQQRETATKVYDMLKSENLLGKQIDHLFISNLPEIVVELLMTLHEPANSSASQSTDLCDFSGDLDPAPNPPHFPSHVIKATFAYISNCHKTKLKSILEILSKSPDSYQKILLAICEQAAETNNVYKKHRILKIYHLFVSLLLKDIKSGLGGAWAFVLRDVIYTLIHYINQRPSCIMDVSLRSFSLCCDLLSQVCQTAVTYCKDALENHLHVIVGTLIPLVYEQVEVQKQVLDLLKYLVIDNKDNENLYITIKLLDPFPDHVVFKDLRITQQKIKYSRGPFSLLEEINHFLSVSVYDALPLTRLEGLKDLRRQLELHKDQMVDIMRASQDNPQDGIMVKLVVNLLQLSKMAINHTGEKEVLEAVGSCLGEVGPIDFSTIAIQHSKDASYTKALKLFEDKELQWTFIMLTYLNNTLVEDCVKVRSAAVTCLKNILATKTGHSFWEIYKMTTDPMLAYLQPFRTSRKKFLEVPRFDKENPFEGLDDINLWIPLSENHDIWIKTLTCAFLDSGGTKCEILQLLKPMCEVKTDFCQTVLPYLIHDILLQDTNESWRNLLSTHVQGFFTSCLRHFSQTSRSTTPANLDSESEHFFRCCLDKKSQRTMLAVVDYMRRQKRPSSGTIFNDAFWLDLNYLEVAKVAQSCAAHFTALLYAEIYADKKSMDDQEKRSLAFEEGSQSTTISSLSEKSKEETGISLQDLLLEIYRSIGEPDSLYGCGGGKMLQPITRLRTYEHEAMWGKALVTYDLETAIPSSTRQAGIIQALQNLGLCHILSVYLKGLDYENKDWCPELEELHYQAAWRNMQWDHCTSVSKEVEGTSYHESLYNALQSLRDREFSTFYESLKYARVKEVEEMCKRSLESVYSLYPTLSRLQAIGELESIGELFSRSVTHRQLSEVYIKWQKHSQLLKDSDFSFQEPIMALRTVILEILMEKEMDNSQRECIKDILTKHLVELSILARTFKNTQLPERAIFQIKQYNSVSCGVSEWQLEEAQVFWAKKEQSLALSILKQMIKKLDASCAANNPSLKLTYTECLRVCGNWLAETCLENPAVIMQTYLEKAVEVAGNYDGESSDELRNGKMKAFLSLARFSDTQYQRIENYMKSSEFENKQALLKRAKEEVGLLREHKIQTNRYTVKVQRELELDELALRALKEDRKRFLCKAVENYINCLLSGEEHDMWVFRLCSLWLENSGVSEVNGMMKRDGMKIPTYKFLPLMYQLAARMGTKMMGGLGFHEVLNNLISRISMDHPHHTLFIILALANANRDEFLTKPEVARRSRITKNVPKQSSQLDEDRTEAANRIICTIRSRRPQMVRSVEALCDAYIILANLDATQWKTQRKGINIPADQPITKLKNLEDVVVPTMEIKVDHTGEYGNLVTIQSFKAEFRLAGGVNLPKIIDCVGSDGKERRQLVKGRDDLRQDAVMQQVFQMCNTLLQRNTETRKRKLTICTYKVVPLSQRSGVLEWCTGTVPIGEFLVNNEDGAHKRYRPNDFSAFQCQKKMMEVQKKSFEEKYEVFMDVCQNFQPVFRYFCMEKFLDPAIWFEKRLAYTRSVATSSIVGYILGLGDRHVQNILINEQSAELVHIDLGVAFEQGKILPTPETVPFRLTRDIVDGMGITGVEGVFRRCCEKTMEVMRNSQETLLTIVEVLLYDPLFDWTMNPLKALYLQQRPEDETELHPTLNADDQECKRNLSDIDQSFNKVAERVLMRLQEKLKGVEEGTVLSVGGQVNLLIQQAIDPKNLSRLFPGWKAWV

Target: T1, ATM (Homo sapiens, UniProt Q13315)
T1 construct: ATM protein was immunoprecipitated from HeLa cell nuclear extract; endogenous in cells; host or cells: HeLa cell nuclear extract (immunoprecipitate)
Assay: In vitro ATM inhibition assay (phosphorylation of GSTp53N66 on serine 15)
Assay type: biochemical
Protocol: In vitro ATM inhibition Assays
In order to assess the inhibitory action of the compounds against ATM in vitro, the following assay was used to determine IC50 values.
ATM protein was immunoprecipitated from HeLa cell nuclear extract using rabbit polyclonal anti-sera raised to the C-terminal ˜500 amino-acid residues of the human ATM protein. The immunoprecipitation was performed according to the methodology described by Banin, S. et al. (1998). 10 μl of immunoprecipitated ATM in Buffer C (50 mM Hepes, pH 7.4, 6 mM MgCl2, 150 mM NaCl, 0.1 mM sodium orthovanadate, 4 mM MnCl2, 0.1 mM dithiothreitol, 10% glycerol) was added to 32.5 μl of buffer C containing 1 μg of the ATM substrate GSTp53N66 in a V-bottomed 96 well polypropylene plate. The GSTp53N66 substrate is the amino terminal 66 amino acid residues of human wild type p53 fused to glutathione S-transferase. ATM phosphorylates p53 on the residue serine 15 (Banin, S. et al. (1998)). Varying concentrations of inhibitor were then added. […] After 10 minutes of incubation at 37° C., the reactions were initiated by the addition of 5 μl of 500 μM Na-ATP. After 1 hour with shaking at 37° C., 150 μl of phosphate buffered saline (PBS) was added to the reaction and the plate centrifuged at 1500 rpm for 10 minutes. 5 μl of the reaction was then transferred to a 96 well opaque white plate containing 45 μl of PBS to allow the GSTp53N66 substrate to bind to the plate wells. The plate was covered and incubated at room temperature for 1 hour with shaking before discarding the contents. The plate wells were washed twice by the addition of PBS prior to the addition of 3% (w/v) bovine serum albumin (BSA) in PBS. The plate was incubated at room temperature for 1 hour with shaking before discarding the contents and washing twice with PBS. To the wells, 50 μl of a 1:10,000 dilution of primary phosphoserine-15 antibody (Cell Signaling Technology, #9284L) in 3% BSA/PBS was added to detect the phosphorylation event on the serine 15 residue of p53 elicited by the ATM kinase. After 1 hour of incubation at room temperature with shaking, the wells were washed four times with PBS prior to the addition of an anti-rabbit HRP conjugated secondary antibody (Pierce, 31462) with shaking for 1 hour at room temperature. The wells were then washed four times with PBS before the addition of chemiluminescence reagent (NEN Renaissance, NEL105). The plate was then shaken briefly, covered with a transparent plate seal and transferred to a TopCount NXT for chemiluminescent counting. Counts per second, following a one second counting time, were recorded for each reaction.
The enzyme activity for each compound is then calculated using the following equation: […]

SMILES | IC50 [nM]
O=c1cc(-c2ccc(OCCN3CCCCC3)c3c2Cc2ccccc2S3)oc(N2CCOCC2)c1 [Compound 88] | < 2000
O=c1cc(-c2ccc(OCCN3CCNCC3)c3c2Cc2ccccc2S3)oc(N2CCOCC2)c1 [Compound 89] | < 2000
CN1CCN(CCOc2ccc(-c3cc(=O)cc(N4CCOCC4)o3)c3c2Sc2ccccc2C3)CC1 [Compound 90] | < 2000
O=c1cc(-c2ccc(OCCN(CCO)CCO)c3c2Cc2ccccc2S3)oc(N2CCOCC2)c1 [Compound 91] | < 2000
COCCN(CCOC)CCOc1ccc(-c2cc(=O)cc(N3CCOCC3)o2)c2c1Sc1ccccc1C2 [Compound 92] | < 2000
NCCNCCOc1ccc(-c2cc(=O)cc(N3CCOCC3)o2)c2c1Sc1ccccc1C2 [Compound 94] | < 2000
O=c1cc(-c2ccc(OCCNCC(O)CO)c3c2Cc2ccccc2S3)oc(N2CCOCC2)c1 (stereo not shown) [Compound 95] | < 2000
O=c1cc(-c2ccc(OCCN3CCCC3)c3c2Cc2ccccc2S3)oc(N2CCOCC2)c1 [Compound 96] | < 2000
CN1CCCN(CCOc2ccc(-c3cc(=O)cc(N4CCOCC4)o3)c3c2Sc2ccccc2C3)CC1 [Compound 97] | < 2000
O=c1cc(-c2ccc(OCCN3CCCNCC3)c3c2Cc2ccccc2S3)oc(N2CCOCC2)c1 [Compound 98] | < 2000
O=c1cc(-c2ccc(OCCN3CCCCCC3)c3c2Cc2ccccc2S3)oc(N2CCOCC2)c1 [Compound 99] | < 2000
CN(C)CCOc1ccc(-c2cc(=O)cc(N3CCOCC3)o2)c2c1Sc1ccccc1C2 [Compound 100] | < 2000
COc1ccc(CNCCOc2ccc(-c3cc(=O)cc(N4CCOCC4)o3)c3c2Sc2ccccc2C3)cc1 [Compound 101] | < 2000
O=c1cc(-c2ccc(OCc3ccccn3)c3c2Cc2ccccc2S3)oc(N2CCOCC2)c1 [Compound 103] | < 2000
O=c1cc(-c2ccc(OCc3cccnc3)c3c2Cc2ccccc2S3)oc(N2CCOCC2)c1 [Compound 104] | < 2000
O=c1cc(-c2ccc(OCc3ccncc3)c3c2Cc2ccccc2S3)oc(N2CCOCC2)c1 [Compound 105] | < 2000
CC(=O)N1CCC(C(=O)Nc2ccc(-c3cc(=O)cc(N4CCOCC4)o3)c3c2Cc2ccccc2S3)CC1 [Compound 108] | < 2000
O=C(Nc1ccc(-c2cc(=O)cc(N3CCOCC3)o2)c2c1Cc1ccccc1S2)c1ccncc1 [Compound 114] | < 2000
COC(=O)CC(=O)Nc1ccc(-c2cc(=O)cc(N3CCOCC3)o2)c2c1Cc1ccccc1S2 [Compound 118] | < 2000
COc1ccccc1C(=O)Nc1ccc(-c2cc(=O)cc(N3CCOCC3)o2)c2c1Cc1ccccc1S2 [Compound 120] | < 2000
COc1cc(OC)cc(C(=O)Nc2ccc(-c3cc(=O)cc(N4CCOCC4)o3)c3c2Cc2ccccc2S3)c1 [Compound 121] | < 2000
O=C(Nc1ccc(-c2cc(=O)cc(N3CCOCC3)o2)c2c1Cc1ccccc1S2)c1ccc2c(c1)OCCCO2 [Compound 125] | < 2000
O=C1Cc2ccccc2Sc2c1cccc2-c1cc(=O)cc(N2CCOCC2)o1 [Compound 132, 2-Morpholin-4-yl-6-(11-oxo-10,11-dihydro-dibenzo[b,f]thiepin-4-yl)-pyran-4-one] | < 2000
O=c1cc(N2CCOCC2)cc(-c2cccc3c2Sc2ccccc2S3)o1 [Compound 136, 4-Morpholin-4-yl-6-thianthren-1-yl-pyran-2-one] | < 2000
CCN(CC)C(=O)c1ccc2c(c1)Sc1cccc(-c3cc(=O)cc(N4CCOCC4)o3)c1S2 [Compound 141] | < 2000
